Results: publication PMC8484013
No constants are given. Whether binding was seen depends on the method and setting. For some of these results: Binding seen in cells or lysates may run through a third protein. Some results given as binding are weak or reduced against the parent protein; the word gives no strength.

The chains behind the UniProt entries cited, without tags or fusion partners. Where a name states a change or a piece, a line headed by the entry shows the natural chain unless it says otherwise.
UniProt Q8WVD5: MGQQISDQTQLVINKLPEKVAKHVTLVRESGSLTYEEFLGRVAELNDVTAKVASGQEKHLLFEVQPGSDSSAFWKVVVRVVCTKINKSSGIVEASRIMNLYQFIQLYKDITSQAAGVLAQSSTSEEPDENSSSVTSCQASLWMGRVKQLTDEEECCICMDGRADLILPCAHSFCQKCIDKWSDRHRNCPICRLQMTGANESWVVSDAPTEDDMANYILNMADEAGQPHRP
UniProt O75608: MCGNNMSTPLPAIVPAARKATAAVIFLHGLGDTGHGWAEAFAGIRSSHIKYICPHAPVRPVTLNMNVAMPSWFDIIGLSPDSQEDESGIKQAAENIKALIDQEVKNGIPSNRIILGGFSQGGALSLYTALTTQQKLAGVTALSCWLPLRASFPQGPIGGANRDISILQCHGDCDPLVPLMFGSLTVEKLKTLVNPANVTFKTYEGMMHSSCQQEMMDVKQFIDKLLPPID

How the values were obtained:
[1] = molecular target: KRAS-GST (UniProt P01116); assay: pull-down; GST pull-down in an E. coli system: purified RNF141 or 2H-RNF141 with KRAS-GST or GST; both purified
[2] = molecular target: RNF141 (RING finger protein 141) in colorectal cancer cells (human (endogenous in HCT116 and other CRC cell lines)) (UniProt Q8WVD5); assay: co-IP; IP from CRC cells with RNF141 antibody (mouse derived), KRAS antibody (rabbit derived) or LYPLA1 antibody, Western blot for the partner; control IgG
[3] = molecular target: KRAS BiFC fusion (UniProt P01116); assay: split reporter; BiFC in HCT116 and HT29 cells; bJunVN173 and bFosVC155 positive control, VN173 and VC155 negative control

In the case of “2H-RNF141 (RNF domain, 145-230aa) (from UniProt Q8WVD5 145-230) (domain or fragment)”, the binding [1] was “no binding”.
“LYPLA1 (Lysophospholipase1), also known as APT1 (acyl-protein thioesterase 1) (from UniProt O75608 1-230) (enzyme)” was tested, and the binding [2] was “binds”.
“RNF141 BiFC fusion (from UniProt Q8WVD5 1-230)” was tested, and the binding [3] was “binds”.
In the case of “full-length RNF141, recombinant (from UniProt Q8WVD5 1-230)”, the binding [1] was “binds”.
